# Source: PubChem BioAssay AID1508600 (Functional Genomics Laboratory (NCATS/FGL), 2020)
# Hit rate of the full screen: of about 53,000 sequences, about 3,700 (7%) were called active.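 Rule for the calls: active = gene knockdowns whose robust z-score for IL-1 alpha signal is at least 2 or at most -2, so actives lie on both sides; inactive = the rest.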 This is one part of the list.
# Assay: Components of the Cytosolic LPS Sensing Pathway: Gene Identification via Genome-wide siRNA Screen;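 note: robust z of the log signal after scaling to non-targeting control siRNA wells of the plate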
# Conditions: RAW264.7 macrophages, IL-1a HTRF, actives lie on both sides, screened at 100 nM (by protocol), cells primed 5 h with Pam3CSK4 first
# Outline: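 RAW264.7 mouse macrophages reverse-transfected with single siRNAs (100 nM final) for 48h, primed with Pam3CSK4 for 5 hours, then transfected with LipidA for 24 hour. Supernatant IL-1a read by HTRF; values normalized to negative-control median, log-transformed robust z-scores.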
row,Sequence,z-score
1,GGCCAAUUUGAAUAAUCUATT against Zfp119a,inactive: -0.401
2,CCAGGGACCCGUAAUUUAUTT against Fn3k,inactive: 0.48
3,GCUGAUGGAGAGUUAUUUGTT against Rcbtb1,inactive: 0.675
4,GGAUGACCUUACCAGACACTT against Parp9,inactive: 0.252
5,CGUGUGUGAUUAAGUCUUATT against Bhlhe23,inactive: 0.167
6,GGAGUUUUUACUAUCAAAGTT against Gm527,inactive: 0.739
7,GUGGUCUUUAGUGGUGCUCTT against Mtag2,inactive: 1.12
8,GGACUAAGUAUAGAAUUCATT against Gdnf,inactive: 1.7
9,CGAUGAUGAACGAUGGACATT against Mmp3,active: 2.47
10,GGAACAAAAGGUUCCUUUUTT against Kank4,inactive: 0.214
11,GGCAGCAUUAUCAACCGGATT against Gipc3,inactive: -0.0873
12,GCUCAUCGGUCAGAUCAAATT against Syt3,inactive: 1.31
13,CGGAAAUAAGUUUCCCUUGTT against 2310039H08Rik,inactive: 0.676
14,GGCUCCAGUACGUCAUCCUTT against Mon2,inactive: 0.701
15,CGUGUACAUGCUCUACUUUTT against Pla2g15,inactive: 1.48
16,GGUUUGCACACACUUUGCCTT against Adgrb2,inactive: -0.624
17,GGAAUAAAAGGAGAGAAAGTT against Slc14a2,inactive: 0.0389
18,CGGUGACGAACAACUUGAATT against Tpm1,inactive: -0.12
19,GGAGAUUAAAGCUUCAAAATT against Ldhd,inactive: -0.387
20,GGAAACAGGAUUAAGCUAGTT against Ankrd27,inactive: 0.587
21,CGUGUCCAAAGGUGAAUCATT against Psmd1,inactive: -0.767
22,GGACUAUGUCAUCAAGAUUTT against Napsa,inactive: -0.137

row,Sequence,z-score
1,GGAAAGGAUCCAGACUUUATT against Crisp2,inactive: 0.171
2,GGAGAGAAUACUAUUUCAATT against Pknox1,inactive: 1.51
3,GCGGGAAUGGAACGAAAACTT against Otx1,inactive: 0.929
4,GCUAAACUCCACCAAGACATT against Grid2ip,inactive: 0.338
5,GCAAAGGAUCCAAUUUUAGTT against Rnf227,inactive: 1.28
6,CCUUUCCUUUAUUGAUCUCTT against Olfr888,inactive: 0.272
7,GGAGGAAAAGUAGGUUUGCTT against Peli1,inactive: -0.531
8,GGAGUGUUUCCAGAGAGCATT against Meak7,inactive: 0.119
9,GCUCAGUAAGGUUACUUCCTT against Dmtn,inactive: 0.357
10,CGUACUCAAAGGCUAACCGTT against Lamc1,inactive: -1.22
11,GGCAGAUGUCAUCAAUGCUTT against Tspan31,inactive: -0.518
12,CCACUACGUUGUUGAUCACTT against Pcdhga11,inactive: 0.286
13,GGAACUGGUGUCAGUGUUGTT against Psmd14,inactive: -1.53
14,GCCUGAUGAAGACAUGCAUTT against Fam178b,inactive: -1.4
15,GGAACCUAGUUUGUGGAUUTT against Phf24,inactive: -0.218
16,GAAACUUCCUAAAUAACUUTT against Vmn1r214,inactive: -0.458
17,GGACAAAGGGAUUGCCAUUTT against Il1f9,inactive: 0.62
18,GGUUCUUUGGCUCUGUAUGTT against Atp5c1,inactive: -0.64
19,GGGUAUUAAGAGCCAACUGTT against Mcts2,inactive: 0.297
20,CCGCUUGGUUACCAGUGACTT against Nudc,inactive: 0.301
21,GCUUACCUUACAUUGUAAGTT against Eda2r,inactive: 0.464
22,GGACUUGUGGCUCAUUGAGTT against Atg2a,inactive: -1.25

row,Sequence,z-score
1,GCUGCACGUGAUCAUGGAUTT against Accs,inactive: 0.852
2,GGUAGUAGUGAAACCCAGGTT against Irs4,inactive: -1.28
3,GCACUAGACGAGAUGACAATT against Eif4g2,inactive: -1.1
4,GGAAUUCUGCACCUCCCAATT against A730020M07Rik,inactive: -0.266
5,UGGGUAUUACCAUAAAUGUTT against Tas2r114,inactive: 0.53
6,GGAUUUCCUGGAAAAUUCCTT against St8sia1,inactive: -0.000682
7,GGCAUGGUGGUCUUUCCUUTT against Sephs1,inactive: -1.85
8,GGAAUAUACCCUGAAACAUTT against Fam71d,inactive: 0.0244
9,CCACCGGGAGAACAAUCAATT against Ago2,inactive: -0.496
10,CGGACAAGAUAGUAUUCUUTT against Atp2b1,inactive: -1.06
11,GCCCAACUUUCAACAAGACTT against Ptgds,inactive: -0.746
12,GGGCGAAAACCAUUCAAAUTT against Zfp112,active: 3.38
13,CCGUAUUAGAAAGUAGAUATT against Arpp19,active: 2.01
14,GGUUCGUAAAAUUAUUAGGTT against Vcl,inactive: 1.09
15,GCUAAUCUGAGAAACAGGCTT against Gpatch11,inactive: -0.544
16,GGGUAUGAAUAUGAGUGCCTT against Golga7b,inactive: -0.465
17,GGAAGAAGAAGUCUUACACTT against Rps27a,inactive: 0.801
18,CCCAUUUGGAAUUAUUCCUTT against Arf4,inactive: -0.598
19,GGGAAGCUGAUUAUACAUUTT against Serpinf1,active: 3.22
20,GCAGUAAUGUCCAGGGACATT against Akt2,inactive: 0.133
21,CCACCUACCCUUUGAGUGGTT against Slc7a12,inactive: -1.45
22,GGCUGAGAAUGACAGUUCCTT against Srrt,inactive: -0.696

row,Sequence,z-score
1,GGUUUGAGCUCUUUAUUUUTT against Cyp2j13,inactive: 0.758
2,GGUGAAAGACCAUUUAUUUTT against Zxdc,inactive: 0.657
3,GGUUCGAGUCUCUUACUCUTT against Pou4f3,inactive: -0.574
4,AGCGGACUGAUACAUGAAATT against Fhad1,inactive: -0.129
5,GCGGCUAGGAUUUCUGGGATT against Mindy3,active: 2.34
6,GAGCAAUGAGCAGAGAUUCTT against H2-D4,inactive: 1.93
7,GGAAAAAGUGACAAGCAAGTT against Svil,inactive: -0.943
8,GGCGAACUGAAGGAUAUGGTT against Anapc5,inactive: 0.835
9,GGCUUCAGCAUUAAUUGUUTT against Ass1,inactive: 0.0164
10,GGAAGAAGAAAGGCAGCUGTT against Parn,inactive: -1.44
11,GGAAAUCAAGCUUUAGGGCTT against Myct1,inactive: 1.19
12,GGAUAUGAAGGAAUAUGUGTT against Leng8,inactive: -0.455
13,GGAAGACAGAAAGUCAUUUTT against Chd1l,inactive: -0.987
14,GGGUUUGGAGUUUGAUUUATT against Plaat3,inactive: 0.446
15,GGUGGAGCCAUGUGCAUUGTT against Olfr1246,inactive: 0.812
16,GCUCCUGGGAUACGUAUUATT against Abhd16a,active: -2
17,GGCACCAAACUCAGCCUUATT against Csk,inactive: -0.181
18,CGUGGUUUCAGAUUUACAATT against Cnksr3,inactive: 0.434
19,GGGCCAGAAUCCAAAUGCUTT against Tox,inactive: -0.434
20,CCCUUUUGUUUAGCUGAUCTT against Glrp1,active: -2.14
21,GCAAACAUGUCAAGUCCGATT against Actl6b,inactive: 1.07
22,GGUUGUUGUUUCAGCAUCCTT against Mrpl18,inactive: -1.47

# Part of the list above, set out differently.
row	Sequence	z-score
11	GGCAGAUGUCAUCAAUGCUTT against Tspan31	inactive: -0.518
12	CCACUACGUUGUUGAUCACTT against Pcdhga11	inactive: 0.286
6	GAGCAAUGAGCAGAGAUUCTT against H2-D4	inactive: 1.93
8	GGCGAACUGAAGGAUAUGGTT against Anapc5	inactive: 0.835

# (next part)

row,Sequence,z-score
1,GGCUAUCUGCUUAUGCUGGTT against Ptch2,inactive: -0.314
2,GGGCCCUUAGAAAAUGUGUTT against Lime1,inactive: 0.326
3,GGAAGUCUAUGUAGGUUCATT against Kif22,inactive: 0.388
4,GGUAUUAUCUGCAUGGGCATT against Mkrn3,inactive: 0.273
5,CGCAUGCACUGAAAUCUACTT against Pop7,inactive: -1.52
6,GGUGGACACACACAUCCACTT against Ampd2,inactive: 0.426
7,GGCCGCCAUUUUGGCAAGATT against Fbxo27,active: 3.41
8,CGAGAGGUUUGUCCAUAGATT against Tac4,inactive: -0.86
9,GCCCAGAGAAUGACCUAUATT against 9130019O22Rik,inactive: 0.54
10,CGAGCAUGCAUUCAAAGGATT against Lrrc3b,inactive: 1.33
11,GGCAGCUUCUGUUCUUUUATT against Ube3c,inactive: 0.269
12,GGACCUGCCAAAAGUUGUGTT against Uqcrc1,inactive: -1.16
13,GGAUAGUUGAAGUCCUAAATT against Il9,inactive: -1.15
14,GCUUCUGUAAAUCCCAUAUTT against Olfr26,inactive: -0.0814
15,GGAACUGCUGUACAGGUACTT against Mest,inactive: -0.807
16,CGGAGGGAAAUGACAUUGCTT against Acr,inactive: 0.585
17,GGAGAUUUCAUGAACUCUGTT against Srrm3,inactive: -0.141
18,GGCUAUGACAAUGCCUACATT against Maged2,inactive: 0.00495
19,GGGUUCAAGUCAGUGAUGUTT against Dnajb8,inactive: -0.271
